Results from PMC9307825.
These are yes or no findings as the source states them, for the method shown. For some assays here: Binding seen in cells or lysates may run through a third protein. Some binding calls cover weakened binding; strength is not graded here.

By UniProt entry, the sequences of proteins in these tests, tags left out. Residues count along the entry.
UniProt Q15848, residues 19-244: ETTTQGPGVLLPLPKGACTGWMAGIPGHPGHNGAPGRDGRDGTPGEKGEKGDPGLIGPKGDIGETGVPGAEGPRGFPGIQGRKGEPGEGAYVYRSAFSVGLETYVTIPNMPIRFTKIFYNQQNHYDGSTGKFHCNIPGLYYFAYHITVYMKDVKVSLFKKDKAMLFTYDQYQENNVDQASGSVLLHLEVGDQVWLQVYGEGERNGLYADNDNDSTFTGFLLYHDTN

Tests used:
[1] = biological target: Clover-ADIPOQ (wild-type human adiponectin tagged with Clover) (human) (UniProt Q15848); test: FRET or BRET; acceptor bleaching of mRuby2 in living stably expressing HEK293T cells, confocal microscopy, 37 °C; Clover donor, mRuby2 acceptor; cells without or with MG132
[2] = biological target: circulating adiponectin in serum of noncarriers (human (endogenous in serum)) (UniProt Q15848); test: SEC; serum (50 µL) on Superdex 200 10/300 GL in 25 mM HEPES, 150 mM NaCl, 1 mM CaCl2, pH 7.4; fractions probed for adiponectin by Western blot

binding [1]	binding [2]	Substance
binds		Clover-ADIPOQ (wild-type human adiponectin tagged with Clover) (from UniProt Q15848 19-244)
	binds	circulating adiponectin in serum of noncarriers (from UniProt Q15848 19-244)
